Assay results published in the supplement of paper PMC12067093, “Discovery and optimisation of a covalent ligand for TRIM25 and its application to targeted protein ubiquitination” (Chemical Science, 2025).
This is one part of the list.

Sequences of proteins named here, by UniProt entry; tags and fusion partners are left off. A change or cut given only in a name is not applied to a line headed by its entry.
UniProt O75151: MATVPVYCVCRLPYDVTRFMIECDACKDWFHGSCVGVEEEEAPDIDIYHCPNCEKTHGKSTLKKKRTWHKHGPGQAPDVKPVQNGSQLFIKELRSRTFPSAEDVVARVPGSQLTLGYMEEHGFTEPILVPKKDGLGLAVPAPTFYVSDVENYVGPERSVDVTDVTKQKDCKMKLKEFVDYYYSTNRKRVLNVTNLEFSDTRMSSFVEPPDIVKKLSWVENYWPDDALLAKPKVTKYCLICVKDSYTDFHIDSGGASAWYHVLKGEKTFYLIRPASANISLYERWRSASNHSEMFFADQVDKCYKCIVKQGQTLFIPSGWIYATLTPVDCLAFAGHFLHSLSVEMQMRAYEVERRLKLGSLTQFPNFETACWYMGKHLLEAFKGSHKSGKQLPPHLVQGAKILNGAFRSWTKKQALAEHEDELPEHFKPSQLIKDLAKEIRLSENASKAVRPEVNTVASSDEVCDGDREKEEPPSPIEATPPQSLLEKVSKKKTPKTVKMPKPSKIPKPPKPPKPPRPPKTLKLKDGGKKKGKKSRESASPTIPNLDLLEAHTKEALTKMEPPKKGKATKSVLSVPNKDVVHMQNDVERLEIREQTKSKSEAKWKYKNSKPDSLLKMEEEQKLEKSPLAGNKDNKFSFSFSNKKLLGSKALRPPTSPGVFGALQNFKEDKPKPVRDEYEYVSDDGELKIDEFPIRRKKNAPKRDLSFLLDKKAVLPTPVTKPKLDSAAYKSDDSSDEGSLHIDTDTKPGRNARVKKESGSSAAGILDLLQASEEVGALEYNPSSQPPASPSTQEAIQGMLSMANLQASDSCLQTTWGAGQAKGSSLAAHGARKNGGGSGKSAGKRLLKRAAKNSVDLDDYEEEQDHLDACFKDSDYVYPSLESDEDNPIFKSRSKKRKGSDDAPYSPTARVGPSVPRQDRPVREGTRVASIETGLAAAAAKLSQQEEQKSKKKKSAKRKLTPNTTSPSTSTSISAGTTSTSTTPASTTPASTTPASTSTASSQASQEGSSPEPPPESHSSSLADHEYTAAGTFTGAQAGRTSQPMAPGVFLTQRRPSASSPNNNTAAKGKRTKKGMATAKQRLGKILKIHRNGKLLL
UniProt Q7RTV0, whole entry, looked up: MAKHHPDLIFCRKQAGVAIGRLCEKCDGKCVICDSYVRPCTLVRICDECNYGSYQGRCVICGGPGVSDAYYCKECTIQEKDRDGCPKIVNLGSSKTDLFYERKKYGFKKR
UniProt P07737, whole entry, looked up: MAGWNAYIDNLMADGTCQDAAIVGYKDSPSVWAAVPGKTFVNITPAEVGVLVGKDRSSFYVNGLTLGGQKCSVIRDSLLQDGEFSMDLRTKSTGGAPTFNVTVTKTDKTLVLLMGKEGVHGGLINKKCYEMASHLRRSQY
UniProt Q96G03: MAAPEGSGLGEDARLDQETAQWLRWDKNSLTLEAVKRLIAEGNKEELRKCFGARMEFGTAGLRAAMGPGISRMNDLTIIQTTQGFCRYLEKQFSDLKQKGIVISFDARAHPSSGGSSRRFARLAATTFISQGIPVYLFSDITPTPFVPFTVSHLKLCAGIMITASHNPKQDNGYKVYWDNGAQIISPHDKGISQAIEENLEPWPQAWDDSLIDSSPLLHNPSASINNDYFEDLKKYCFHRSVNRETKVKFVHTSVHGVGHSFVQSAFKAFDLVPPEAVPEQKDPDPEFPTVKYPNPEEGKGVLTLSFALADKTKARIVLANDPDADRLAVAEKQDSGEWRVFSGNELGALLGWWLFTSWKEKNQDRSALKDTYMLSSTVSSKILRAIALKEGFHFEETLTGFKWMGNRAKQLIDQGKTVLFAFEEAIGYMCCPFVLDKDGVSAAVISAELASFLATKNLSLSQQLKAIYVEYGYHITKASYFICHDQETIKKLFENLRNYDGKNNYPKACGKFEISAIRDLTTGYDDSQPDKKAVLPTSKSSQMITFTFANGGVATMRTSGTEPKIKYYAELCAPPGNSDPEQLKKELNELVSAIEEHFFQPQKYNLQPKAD
UniProt O00329: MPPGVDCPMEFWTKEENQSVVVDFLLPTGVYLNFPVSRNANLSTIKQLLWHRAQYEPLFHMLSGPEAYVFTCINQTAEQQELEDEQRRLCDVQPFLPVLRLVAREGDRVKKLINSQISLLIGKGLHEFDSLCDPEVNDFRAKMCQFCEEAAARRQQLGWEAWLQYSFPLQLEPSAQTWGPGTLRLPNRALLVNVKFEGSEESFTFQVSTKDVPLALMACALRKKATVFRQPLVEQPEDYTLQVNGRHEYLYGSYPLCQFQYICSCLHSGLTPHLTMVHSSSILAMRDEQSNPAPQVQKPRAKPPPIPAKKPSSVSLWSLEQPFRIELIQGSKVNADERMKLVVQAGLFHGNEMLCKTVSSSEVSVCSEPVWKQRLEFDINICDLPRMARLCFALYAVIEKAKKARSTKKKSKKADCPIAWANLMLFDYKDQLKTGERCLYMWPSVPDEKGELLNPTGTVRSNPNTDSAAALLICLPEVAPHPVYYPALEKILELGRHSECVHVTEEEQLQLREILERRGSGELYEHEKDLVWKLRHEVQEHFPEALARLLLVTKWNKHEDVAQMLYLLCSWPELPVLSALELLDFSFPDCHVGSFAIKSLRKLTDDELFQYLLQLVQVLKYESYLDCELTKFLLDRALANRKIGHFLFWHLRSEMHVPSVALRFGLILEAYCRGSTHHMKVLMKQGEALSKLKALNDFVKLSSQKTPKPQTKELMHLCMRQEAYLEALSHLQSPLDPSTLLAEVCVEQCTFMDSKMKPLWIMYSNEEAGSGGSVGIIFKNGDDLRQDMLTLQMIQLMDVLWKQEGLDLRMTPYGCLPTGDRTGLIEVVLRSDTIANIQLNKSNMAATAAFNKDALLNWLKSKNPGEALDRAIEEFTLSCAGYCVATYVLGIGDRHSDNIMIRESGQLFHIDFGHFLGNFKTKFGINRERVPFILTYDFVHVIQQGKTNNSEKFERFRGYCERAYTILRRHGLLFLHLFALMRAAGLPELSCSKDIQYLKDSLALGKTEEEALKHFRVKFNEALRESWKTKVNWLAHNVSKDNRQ
UniProt Q16875: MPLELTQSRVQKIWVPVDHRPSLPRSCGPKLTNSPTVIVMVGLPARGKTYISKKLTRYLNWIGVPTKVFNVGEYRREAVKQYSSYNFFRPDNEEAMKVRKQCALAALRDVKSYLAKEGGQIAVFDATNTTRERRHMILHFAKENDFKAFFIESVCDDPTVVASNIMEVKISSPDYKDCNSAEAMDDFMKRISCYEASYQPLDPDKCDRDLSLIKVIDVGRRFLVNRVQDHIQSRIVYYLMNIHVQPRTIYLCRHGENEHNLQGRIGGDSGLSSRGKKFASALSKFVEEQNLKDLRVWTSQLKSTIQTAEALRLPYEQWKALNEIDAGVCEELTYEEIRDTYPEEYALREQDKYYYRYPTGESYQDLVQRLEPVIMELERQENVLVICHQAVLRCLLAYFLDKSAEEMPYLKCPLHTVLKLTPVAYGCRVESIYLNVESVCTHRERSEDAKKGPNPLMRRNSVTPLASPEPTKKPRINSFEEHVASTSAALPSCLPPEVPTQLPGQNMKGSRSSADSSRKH
UniProt Q92643: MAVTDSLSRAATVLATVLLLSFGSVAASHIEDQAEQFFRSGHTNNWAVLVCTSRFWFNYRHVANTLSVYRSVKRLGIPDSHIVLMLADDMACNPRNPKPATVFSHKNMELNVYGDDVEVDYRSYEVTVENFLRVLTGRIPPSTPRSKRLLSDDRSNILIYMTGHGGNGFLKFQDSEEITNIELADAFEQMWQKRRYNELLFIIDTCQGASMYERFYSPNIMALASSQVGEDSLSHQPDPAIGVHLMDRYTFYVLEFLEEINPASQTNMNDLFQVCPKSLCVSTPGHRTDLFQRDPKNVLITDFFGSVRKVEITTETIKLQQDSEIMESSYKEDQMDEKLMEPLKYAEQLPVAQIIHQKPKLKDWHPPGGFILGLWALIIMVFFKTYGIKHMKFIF
UniProt P00558: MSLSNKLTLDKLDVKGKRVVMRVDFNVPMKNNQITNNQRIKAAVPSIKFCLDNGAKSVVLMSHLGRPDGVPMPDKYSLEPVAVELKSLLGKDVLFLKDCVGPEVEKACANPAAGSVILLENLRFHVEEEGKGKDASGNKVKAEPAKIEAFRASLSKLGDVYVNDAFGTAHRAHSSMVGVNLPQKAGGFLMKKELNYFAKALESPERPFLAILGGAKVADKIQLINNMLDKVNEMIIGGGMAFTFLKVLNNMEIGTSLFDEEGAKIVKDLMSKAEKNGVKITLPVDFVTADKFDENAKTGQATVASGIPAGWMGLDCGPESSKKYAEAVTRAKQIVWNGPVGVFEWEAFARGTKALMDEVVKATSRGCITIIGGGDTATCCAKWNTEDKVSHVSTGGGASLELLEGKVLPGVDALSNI
UniProt O94880: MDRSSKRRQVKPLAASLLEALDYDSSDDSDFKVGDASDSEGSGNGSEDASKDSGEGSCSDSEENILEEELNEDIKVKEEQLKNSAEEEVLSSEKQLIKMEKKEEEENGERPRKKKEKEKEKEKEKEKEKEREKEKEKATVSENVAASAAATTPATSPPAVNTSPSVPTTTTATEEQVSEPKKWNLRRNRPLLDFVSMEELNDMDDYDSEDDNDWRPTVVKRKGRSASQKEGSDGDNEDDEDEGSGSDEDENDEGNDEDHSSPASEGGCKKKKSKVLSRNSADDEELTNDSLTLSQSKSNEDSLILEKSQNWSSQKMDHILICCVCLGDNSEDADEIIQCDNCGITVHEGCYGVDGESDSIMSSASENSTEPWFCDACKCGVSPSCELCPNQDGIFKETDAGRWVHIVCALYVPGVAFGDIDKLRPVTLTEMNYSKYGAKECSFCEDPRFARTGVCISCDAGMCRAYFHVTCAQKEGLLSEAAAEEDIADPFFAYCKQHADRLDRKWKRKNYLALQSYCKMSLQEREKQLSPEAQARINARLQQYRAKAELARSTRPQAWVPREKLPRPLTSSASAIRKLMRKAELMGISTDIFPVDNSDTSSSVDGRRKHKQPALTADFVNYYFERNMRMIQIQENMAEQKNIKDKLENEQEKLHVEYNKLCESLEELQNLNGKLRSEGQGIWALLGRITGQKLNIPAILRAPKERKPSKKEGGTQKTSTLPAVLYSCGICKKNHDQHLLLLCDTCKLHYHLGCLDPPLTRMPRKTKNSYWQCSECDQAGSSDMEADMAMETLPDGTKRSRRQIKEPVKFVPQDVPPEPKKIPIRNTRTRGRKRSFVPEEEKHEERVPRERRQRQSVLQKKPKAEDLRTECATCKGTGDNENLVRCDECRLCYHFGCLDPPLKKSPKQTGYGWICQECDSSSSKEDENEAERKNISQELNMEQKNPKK
UniProt P35080, whole entry: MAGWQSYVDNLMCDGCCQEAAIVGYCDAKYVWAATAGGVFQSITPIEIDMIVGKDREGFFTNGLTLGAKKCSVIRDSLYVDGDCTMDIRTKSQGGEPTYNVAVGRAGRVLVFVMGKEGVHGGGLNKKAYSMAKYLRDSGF
UniProt Q9NRX4: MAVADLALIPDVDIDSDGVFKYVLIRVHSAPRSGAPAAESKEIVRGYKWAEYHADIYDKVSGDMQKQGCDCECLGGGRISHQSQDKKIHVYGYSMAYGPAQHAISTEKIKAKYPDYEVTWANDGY
UniProt Q8IWS0: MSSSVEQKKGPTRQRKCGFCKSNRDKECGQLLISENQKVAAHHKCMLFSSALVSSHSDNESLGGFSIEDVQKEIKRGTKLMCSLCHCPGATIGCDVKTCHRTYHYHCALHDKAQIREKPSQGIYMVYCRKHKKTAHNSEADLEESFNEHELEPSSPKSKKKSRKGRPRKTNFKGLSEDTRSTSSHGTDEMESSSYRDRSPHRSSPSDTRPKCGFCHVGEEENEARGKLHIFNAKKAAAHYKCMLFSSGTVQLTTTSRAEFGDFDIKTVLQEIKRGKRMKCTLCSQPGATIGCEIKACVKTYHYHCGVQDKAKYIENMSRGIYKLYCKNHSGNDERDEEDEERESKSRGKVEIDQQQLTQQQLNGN
UniProt O43175: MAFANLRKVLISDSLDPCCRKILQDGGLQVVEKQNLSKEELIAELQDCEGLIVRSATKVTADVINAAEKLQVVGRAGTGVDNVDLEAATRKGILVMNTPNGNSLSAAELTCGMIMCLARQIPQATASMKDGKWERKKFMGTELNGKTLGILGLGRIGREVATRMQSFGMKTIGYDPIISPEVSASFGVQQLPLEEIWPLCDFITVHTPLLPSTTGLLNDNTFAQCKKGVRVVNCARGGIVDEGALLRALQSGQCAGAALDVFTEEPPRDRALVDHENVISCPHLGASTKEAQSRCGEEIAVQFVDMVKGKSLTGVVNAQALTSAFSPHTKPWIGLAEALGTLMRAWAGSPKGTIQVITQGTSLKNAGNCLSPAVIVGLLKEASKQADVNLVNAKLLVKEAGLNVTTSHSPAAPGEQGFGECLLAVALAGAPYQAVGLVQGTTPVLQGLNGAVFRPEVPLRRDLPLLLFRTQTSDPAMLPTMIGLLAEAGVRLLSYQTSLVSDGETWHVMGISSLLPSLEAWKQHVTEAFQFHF

Compound: Cc1cc(ccc1-c1ccccc1)C(=O)N1CCCN(CC1)C(=O)CCl [compound 10]
Assay: probe-labelled cysteine peptide fold change vs DMSO (competition) (log2 fold change); higher = less target engagement (more negative = stronger competition)
Conditions: THP-1, incubation time: 4 h
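Note: competitive profiling in live THP-1 cells: cysteine peptides tagged with an iodoacetamide desthiobiotin (IA-DTB) probe, intensity after compound treatment relative to DMSO-treated cells.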

| Target | probe-labelled cysteine peptide fold change (10 µM) | probe-labelled cysteine peptide fold change (50 µM) |
| --- | --- | --- |
| PHF2_O75151_8_ATVPVYCVCR (UniProt O75151) | 0.00783 | -0.0398 |
| PEX3_P56589_337_IIPIVNGQIHSVCSETPSHFVQDLLTMEQVK (UniProt P56589) | 0.0239 | -0.0998 |
| PECAM1_P16284_386_SDSGTYICTAGIDK (UniProt P16284) | -0.222 | 0.00631 |
| PECAM1_P16284_572_EQEGEYYCTAFNR (UniProt P16284) | -0.387 | -0.274 |
| PHIP_Q8WWQ0_1335_QCEELLNLIFQCEDSEPFR (UniProt Q8WWQ0) | -0.169 | -0.506 |
| PHF5A_Q7RTV0_40_CVICDSYVRPCTLVR (UniProt Q7RTV0) | -0.0813 | 0.0572 |
| PFN1_P07737_17_AGWNAYIDNLMADGTCQDAAIVGYK (UniProt P07737) | -0.117 | 0.0741 |
| PGD_P52209_289_CLSSLK (UniProt P52209) | 0.148 | 0.165 |
| PHKB_Q93100_1066_GTCSYLTK (UniProt Q93100) | 0.0117 | -0.0313 |
| PGM2_Q96G03_484_ASYFICHDQETIKK (UniProt Q96G03) | -0.0162 | 0.224 |
| PGGT1B_P53609_162_ALQLEDGSFCAVPEGSENDMR (UniProt P53609) | -0.0186 | -0.573 |
| PIK3CD_O00329_416_ADCPIAWANLMLFDYK (UniProt O00329) | 0.419 | 0.323 |
| PFKP_Q01813_343_MGVEAVIALLEATPDTPACVVSLNGNHAVR (UniProt Q01813) | -0.174 | -0.138 |
| PFKFB3_Q16875_440_VESIYLNVESVCTHR (UniProt Q16875) | 0.309 | 0.312 |
| PIGK_Q92643_280_SLCVSTPGHR (UniProt Q92643) | 0.0179 | 0.141 |
| PFKFB3_Q16875_102_KQCALAALR (UniProt Q16875) | -0.00114 | -0.635 |
| PGK1_P00558_50_FCLDNGAK (UniProt P00558) | 0.0573 | -0.0506 |
| PHF14_O94880-2_612_LCYHFGCLDPPLK (UniProt O94880) | -0.000102 | -0.329 |
| PEPD_P12955_183_FEVNNTILHPEIVECR (UniProt P12955) | 0.137 | 0.234 |
| PFAS_O15067_975_DAGLHCLELGHTGEAGPHAMVR (UniProt O15067) | -0.00673 | -0.104 |
| PHKB_Q93100-2_3_ACSPDAVVSPSSAFLR (UniProt Q93100) | -0.187 | -0.468 |
| PES1_O00541_361_SLCIGATYDVTDSR (UniProt O00541) | -0.0518 | -0.407 |
| PHF20L1_A8MW92_497_GSEVTAPVASDSSYRNECPR (UniProt A8MW92) | -0.0394 | 0.00665 |
| PECAM1_P16284_256_CTIQVTHLAQEFPEIIIQK (UniProt P16284) | -0.0253 | -0.188 |
| PGM2_Q96G03_484_ASYFICHDQETIK (UniProt Q96G03) | -0.0192 | 0.382 |

Some of the entries above in a different format.
Target | probe-labelled cysteine peptide fold change (10 µM) | probe-labelled cysteine peptide fold change (50 µM)
PEX3_P56589_337_IIPIVNGQIHSVCSETPSHFVQDLLTMEQVK (UniProt P56589) | 0.0239 | -0.0998
PECAM1_P16284_386_SDSGTYICTAGIDK (UniProt P16284) | -0.222 | 0.00631
PECAM1_P16284_572_EQEGEYYCTAFNR (UniProt P16284) | -0.387 | -0.274
PHIP_Q8WWQ0_1335_QCEELLNLIFQCEDSEPFR (UniProt Q8WWQ0) | -0.169 | -0.506
PHF5A_Q7RTV0_40_CVICDSYVRPCTLVR (UniProt Q7RTV0) | -0.0813 | 0.0572
PFN1_P07737_17_AGWNAYIDNLMADGTCQDAAIVGYK (UniProt P07737) | -0.117 | 0.0741
PGD_P52209_289_CLSSLK (UniProt P52209) | 0.148 | 0.165
PHKB_Q93100_1066_GTCSYLTK (UniProt Q93100) | 0.0117 | -0.0313
PGM2_Q96G03_484_ASYFICHDQETIKK (UniProt Q96G03) | -0.0162 | 0.224
PGGT1B_P53609_162_ALQLEDGSFCAVPEGSENDMR (UniProt P53609) | -0.0186 | -0.573
PIK3CD_O00329_416_ADCPIAWANLMLFDYK (UniProt O00329) | 0.419 | 0.323
PFKP_Q01813_343_MGVEAVIALLEATPDTPACVVSLNGNHAVR (UniProt Q01813) | -0.174 | -0.138
PFKFB3_Q16875_440_VESIYLNVESVCTHR (UniProt Q16875) | 0.309 | 0.312
PIGK_Q92643_280_SLCVSTPGHR (UniProt Q92643) | 0.0179 | 0.141
PFKFB3_Q16875_102_KQCALAALR (UniProt Q16875) | -0.00114 | -0.635
PGK1_P00558_50_FCLDNGAK (UniProt P00558) | 0.0573 | -0.0506
PHF14_O94880-2_612_LCYHFGCLDPPLK (UniProt O94880) | -0.000102 | -0.329

(further entries)

| Target | probe-labelled cysteine peptide fold change (10 µM) | probe-labelled cysteine peptide fold change (50 µM) |
| --- | --- | --- |
| PHF5A_Q7RTV0_33_CVICDSYVRPCTLVR (UniProt Q7RTV0) | 0.141 | 0.0491 |
| PELO_Q9BRX2_204_CILVASPGFVR (UniProt Q9BRX2) | 0.137 | 0.22 |
| PHACTR3_Q96KR7_126_TCNPDGGPR (UniProt Q96KR7) | 0.0125 | 0.0644 |
| PGK1_P00558_380_GCITIIGGGDTATCCAK (UniProt P00558) | 0.0121 | -0.0333 |
| PIK3C2A_O00443_13_ECPSSHPEPTR (UniProt O00443) | -0.0787 | -0.38 |
| PELP1_Q8IZL8_522_KGDSNANSDVCAAALR (UniProt Q8IZL8) | 0.0142 | 0.00462 |
| PGM1_P36871_160_TIEEYAVCPDLK (UniProt P36871) | -0.131 | 0.054 |
| PI4KA_P42356_1774_VQPGCYLPSNPEAIVLDIDYK (UniProt P42356) | -0.223 | -0.348 |
| PFN2_P35080_84_DSLYVDGDCTMDIR (UniProt P35080) | 0.106 | 0.184 |
| PFAS_O15067_1027_CVAEEER (UniProt O15067) | -0.163 | -0.0174 |
| PHRF1_Q9P1Y6_962_TVTCVTVVEPEAPPSPDVLQAATHR (UniProt Q9P1Y6) | -0.507 | -0.54 |
| PIGX_Q8TBF5_175_YHRPHSEDGEASIVVNNPDLLMFCDQEFPILK (UniProt Q8TBF5) | -0.034 | 0.0393 |
| PIK3CB_P42338_287_ALPHFILVECCK (UniProt P42338) | -0.174 | -0.88 |
| PHF10_Q8WUB8_454_TCIICGQPHHEEEMMFCDMCDR (UniProt Q8WUB8) | -0.587 | -0.186 |
| PFAS_O15067_606_IVLVDDRECPVRR (UniProt O15067) | -0.0874 | -0.449 |
| PFKFB3_Q16875_427_LTPVAYGCR (UniProt Q16875) | -0.0504 | 0.0513 |
| PFKP_Q01813_718_FTTDDSICVLGISK (UniProt Q01813) | 0.135 | 0.0174 |
| PFAS_O15067_351_GAHVVAGTAGYCFGNLHIPGYNLPWEDPSFQYPGNFAR (UniProt O15067) | 0.0247 | -0.409 |
| PIK3CD_O00329_355_LVVQAGLFHGNEMLCK (UniProt O00329) | 0.0869 | 0.075 |
| PES1_O00541_153_CHVQTIQLCR (UniProt O00541) | -0.085 | -0.106 |
| PIGA_P37287_348_VGGIPEVLPENLIILCEPSVK (UniProt P37287) | 0.0255 | -0.199 |
| PFKFB3_Q16875_387_QENVLVICHQAVLR (UniProt Q16875) | 0.168 | 0.336 |
| PHPT1_Q9NRX4_71+73_QGCDCECLGGGR (UniProt Q9NRX4) | 0.0867 | -0.192 |
| PGD_P52209_402_SAVENCQDSWR (UniProt P52209) | 0.0887 | 0.174 |
| PEX3_P56589_65_TCNMTVLSMLPTLR (UniProt P56589) | -0.147 | -0.255 |

| Target | probe-labelled cysteine peptide fold change (10 µM) | probe-labelled cysteine peptide fold change (50 µM) |
| --- | --- | --- |
| PGLS_O95336_237_LCWFLDEAAAR (UniProt O95336) | -0.0326 | -0.0213 |
| PGM1_P36871_101_LVIGQNGILSTPAVSCIIR (UniProt P36871) | -0.387 | 0.0617 |
| PHPT1_Q9NRX4_69_QGCDCECLGGGR (UniProt Q9NRX4) | -0.0247 | 0.0348 |
| PHPT1_Q9NRX4_69+71_QGCDCECLGGGR (UniProt Q9NRX4) | -0.0253 | -0.281 |
| PIBF1_Q8WXW3_334_CAHEEDRLER (UniProt Q8WXW3) | 0.47 | 1.41 |
| PHF6_Q8IWS0_94_LMCSLCHCPGATIGCDVK (UniProt Q8IWS0) | -0.125 | -0.21 |
| PHGDH_O43175_116_GILVMNTPNGNSLSAAELTCGMIMCLAR (UniProt O43175) | 0.0514 | 0.173 |
| PGM1_P36871_374_LSLCGEESFGTGSDHIR (UniProt P36871) | 0.0361 | -0.0554 |
| PHIP_Q8WWQ0_1165_SLIYKPLDGEWGTNPRDEECER (UniProt Q8WWQ0) | 0.0409 | -0.0627 |
| PIGT_Q969N2_272_TLTEPCPLASESR (UniProt Q969N2) | -0.0656 | 0.264 |
| PHF12_Q96QT6_315_WMCPNHIEHVVLNQK (UniProt Q96QT6) | 0.384 | 0.325 |
| PGK1_P00558_316_TGQATVASGIPAGWMGLDCGPESSKK (UniProt P00558) | -0.0721 | -0.16 |
| PGAM1_P18669_55_DAGYEFDICFTSVQK (UniProt P18669) | 0.0908 | 0.0962 |
| PHF2_O75151_869_NSVDLDDYEEEQDHLDACFK (UniProt O75151) | 0.705 | 0.0194 |
| PHGDH_O43175_111+116_KGILVMNTPNGNSLSAAELTCGMIMCLAR (UniProt O43175) | 0.412 | 0.139 |
| PHB_P35232_69_GVQDIVVGEGTHFLIPWVQKPIIFDCR (UniProt P35232) | 0.00281 | 0.196 |
| PEX6_Q13608_564_HLLLNEDPLNSCPPLMVVATTSR (UniProt Q13608) | 0.0661 | 0.052 |
| PFAS_O15067_336_IRDVQCTGR (UniProt O15067) | -0.089 | -0.0693 |
| PIAS1_O75925_228_VNTKPCSLPGYLPPTK (UniProt O75925) | -0.0752 | -0.512 |
| PHF6_Q8IWS0_107_TYHYHCALHDK (UniProt Q8IWS0) | -0.0769 | -0.0881 |
| PHGDH_O43175_281_ALVDHENVISCPHLGASTK (UniProt O43175) | -0.0468 | -0.141 |
| PELO_Q9BRX2_175_KGNCSQHDR (UniProt Q9BRX2) | 0.038 | -0.096 |
| PFKL_P17858_708_VFANAPDSACVIGLK (UniProt P17858) | -0.0317 | 0.0814 |
| PHF11_Q9UIL8_135_NYHFFCAK (UniProt Q9UIL8) | 0.0736 | 0.303 |
